Measured values reported in PMC6297230, “Structural basis of meiotic telomere attachment to the nuclear envelope by MAJIN-TERB2-TERB1” (Nature Communications, 2018).

Key:
[1] = molecular target: MAJIN N-terminal structural core (amino acids 1–112) (human); test: crystal structure; MAJIN 1-112 with TERB2 168-220, selenomethionine derivative, SAD, spacegroup P3_(2)21, 2.90 Å; 2:2 heterotetramer in the asymmetric unit; co-expressed and co-purified complex; both purified
[2] = molecular target: MAJIN N-terminal structural core (amino acids 1–112) (human); test: SEC-SAXS; purified complexes at > 10 mg/ml on Superdex 200 Increase 10/300 GL in 20 mM Tris pH 8.0, 250 mM KCl; ab initio, rigid body and multi-phase modelling; both purified
[3] = molecular target: MAJIN core, truncated (amino acids 1–106) (human); test: crystal structure; MAJIN 1-106 with TERB2 168-207, molecular replacement, spacegroup C222_(1), 1.85 Å; 2:2 heterotetramer in the asymmetric unit; co-expressed and co-purified complex; both purified
[4] = molecular target: MAJINΔTM (amino acids 1–233) (human); test: SEC-SAXS; purified complexes at > 10 mg/ml on Superdex 200 Increase 10/300 GL in 20 mM Tris pH 8.0, 250 mM KCl; ab initio, rigid body and multi-phase modelling; both purified
[5] = molecular target: MAJIN core, truncated (amino acids 1–106) (human); test: as above
[6] = molecular target: MAJIN_(Core+BP1)–TERB2–TERB1_(TRFB) complex harbouring the TERB1 T648E mutation (human); test: SEC; purified MAJIN(Core+BP1)-TERB2–TERB1(TRFB) complex, WT or T648E, incubated with a stoichiometric amount of TRF1 TRFH; elution profiles; both purified
[7] = molecular target: MBP-fusion MAJINΔTM-TERB2–TERB1_(TRFB) complex (human); test: pull-down; amylose resin; MBP-fusion MAJINΔTM–TERB2–TERB1 complex (2 µM), with or without pre-incubation with plasmid dsDNA (20 µM per base pair), then TRF1 TRFH (4 µM); 20 mM Tris pH 8.0, 250 mM KCl, 10 mg/ml BSA, 4 °C; both purified

B1: TERB2 C-terminus (amino acids 168–220) (domain or fragment, UniProt Q8NHR7 168-220)
chain: PVNNMVTGYISIDAMKKFLGELHDFIPGTSGYLAYHVQNEINMSAIKNKLKRK
For B1, the binding [1] was “binds” and the binding [2] was “binds”.

B2: TERB2 C-terminus, truncated (amino acids 168–207) (domain or fragment, UniProt Q8NHR7 168-207)
chain: PVNNMVTGYISIDAMKKFLGELHDFIPGTSGYLAYHVQNE
For B2, the binding [3] was “binds”, the binding [4] was “binds” and the binding [5] was “binds”.

B3: full length TERB2 (1–220) (protein, UniProt Q8NHR7 1-220)
chain: MFQGQRGWFCGSVSQDLRQFWVAEGGTISDPRAADFLFSCDASHPDTLRIYQSLDYIEDNATVFHAYYLSAVANAKIKNSVALGHFILPPACLQKEIRRKIGSFIWEQDQHFLIEKHDEVTPNEIKTLRENSELATEHKKELSKSPEKHFIRTPVVEKQMYFPLQNYPVNNMVTGYISIDAMKKFLGELHDFIPGTSGYLAYHVQNEINMSAIKNKLKRK
With B3 the binding [2] was “binds”.

B4: TRF homology domain of TRF1 (amino acids 62–268) (domain or fragment, human, UniProt P54274 62-268, looked up)
chain: EDAGLVAEAEAVAAGWMLDFLCLSLCRAFRDGRSEDFRRTRNSAEAIIHGLSSLTACQLRTIYICQFLTRIAAGKTLDAQFENDERITPLESALMIWGSIEKEHDKLHEEIQNLIKIQAIAVCMENGNFKEAEEVFERIFGDPNSHMPFKSKLLMIISQKDTFHSFFQHFSYNHMMEKIKSYVNYVLSEKSSTFLMKAAAKVVESKR
notes: Dimer by SEC-MALS; also called TRF1_(TRFH); source: E. coli BL21 (DE3), purified (Ni-NTA, amylose, ion exchange, SEC; 10% glycerol, room temperature)
For B4, the binding [6] was “binds” and the binding [7] was “binds”.

Results are given in words; binding and its absence hold for the method and conditions named. Binding can be weak; no strength is given. For some assays here: Binding seen in cells or lysates may run through a third protein.
